Reference: publication PMC5964349, “A Single-Domain Response Regulator Functions as an Integrating Hub To Coordinate General Stress Response and Development in Alphaproteobacteria” (mBio, 2018)
Results are given in words; binding and its absence hold for the method and conditions named. Binding seen in cells or lysates may run through a third protein. A yes stands for co-enrichment or nearness to the bait. Other partners may have been found.

The chains behind the UniProt entries cited, without tags or fusion partners. Where a name states a change or a piece, a line headed by the entry shows the natural chain unless it says otherwise.
UniProt Q9A428: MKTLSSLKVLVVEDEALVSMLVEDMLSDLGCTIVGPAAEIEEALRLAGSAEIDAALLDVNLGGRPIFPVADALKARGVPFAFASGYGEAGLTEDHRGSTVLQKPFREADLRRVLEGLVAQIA
UniProt A0A0H3CAN8: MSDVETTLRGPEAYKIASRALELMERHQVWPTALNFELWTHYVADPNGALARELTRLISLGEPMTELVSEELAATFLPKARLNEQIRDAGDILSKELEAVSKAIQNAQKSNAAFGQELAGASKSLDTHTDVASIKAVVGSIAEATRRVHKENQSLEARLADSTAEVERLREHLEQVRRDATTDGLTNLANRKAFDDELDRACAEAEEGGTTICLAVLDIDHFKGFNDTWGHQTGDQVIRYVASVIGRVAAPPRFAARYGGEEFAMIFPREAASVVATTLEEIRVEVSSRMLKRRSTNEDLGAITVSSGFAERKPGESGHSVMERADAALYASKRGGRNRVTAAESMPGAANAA

Target: MrrA-3×FLAG (multifunctional response regulator A, CC3015) (C. crescentus) (UniProt Q9A428)
Assay: affinity purification with mass spectrometry; lysate (Bug Buster) of C. crescentus expressing mrrA-3×FLAG; anti-FLAG antibodies by the legend of Table S1 (the methods name Ni-NTA agarose); control strain with untagged MrrA; eluate digested and analysed by LC-MS/MS

binding: binds
Substance: diguanylate cyclase DgcB (from UniProt A0A0H3CAN8) (enzyme)
